Results on 2 molecules are retold here after patent EP1494693B1.

By UniProt entry, the sequences of proteins in these tests, tags left out. Residues count along the entry.
UniProt P13385, residues 31-169: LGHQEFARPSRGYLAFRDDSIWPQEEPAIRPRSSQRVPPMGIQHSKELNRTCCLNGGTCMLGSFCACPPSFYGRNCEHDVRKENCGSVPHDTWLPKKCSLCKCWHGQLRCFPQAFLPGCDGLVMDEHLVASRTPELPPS

Results are given in words; binding and its absence hold for the method and conditions named. Some binding calls cover weakened binding; strength is not graded here.

One assay deals with T1, Activin B (UniProt P09529).
T1 sequence (looked up): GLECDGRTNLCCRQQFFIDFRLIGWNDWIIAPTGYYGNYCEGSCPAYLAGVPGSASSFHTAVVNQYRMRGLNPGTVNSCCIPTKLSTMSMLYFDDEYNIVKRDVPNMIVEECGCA
In words: ELISA, ligand-coated plate, anti-Fc alkaline phosphatase. On the technique in general: In an ELISA, binding on a coated surface is turned into a signal by an enzyme label.

In a further assay the target is CR-Fc (UniProt P13385). The assay is described as follows: Biacore, CR-Fc immobilized.

Turning to “CR-Fc (from UniProt P13385 31-169) (Fc fusion)”, the binding entry with Activin B is “binds”.

B1: Activin B (ligand, UniProt P09529 293-407, looked up)
chain: GLECDGRTNLCCRQQFFIDFRLIGWNDWIIAPTGYYGNYCEGSCPAYLAGVPGSASSFHTAVVNQYRMRGLNPGTVNSCCIPTKLSTMSMLYFDDEYNIVKRDVPNMIVEECGCA
As to B1, the binding result with CR-Fc was “binds”.
